Measured values from the supplement of paper PMC12889115.
Some of the results follow. Values are raw readings; no control value is given beside them.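 In the initial screen, polymyxin B was used at a concentration that permeabilizes Salmonella's outer membrane but not its inner membrane. Maximum growth was set by DMSO wells with or without polymyxin B. Since plates varied, data were ranked per plate, and compounds giving the lowest OD600 advanced as hits.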

System: Salmonella enterica serovar Typhimurium SL1344
Assay: bacterial growth OD600 after 18 h with compound and polymyxin B; higher = more bacterial growth (less inhibition)
Details: 50 µM, Mueller-Hinton broth

Row | Structure (SMILES) | bacterial growth OD600 (polymyxin B 1 µg/mL) | bacterial growth OD600 (polymyxin B 0.75 µg/mL)
1 | COc1cc(NC(=O)CCC2CCCN(C(=O)c3c[nH]nc3C)C2)cc(OC)c1 (stereo unspecified) | 0.932 | –
2 | COc1cc(=O)n2c(c1C(=O)NCc1ccc3c(c1)OCO3)CCN(C(=O)CCC1CCCC1)CC2 | – | 0.82
3 | Cc1ccccc1C(=O)N1CCCC(N2CCN(c3ccccc3C)CC2)C1 (stereo unspecified) | 0.865 | –
4 | COc1ccc(O)c(CN2CCCC(CCC(=O)NCc3ccc(OC)cc3OC)C2)c1 (stereo unspecified) | – | 0.781
5 | COCC1CCN(C(=O)C2CCC(=O)N(Cc3cccc(C(F)(F)F)c3)C2)CC1 (stereo unspecified) | 0.982 | –
6 | COc1cccc(-c2cnnc(N(C)Cc3nc(C)c[nH]3)n2)c1 | – | 0.844
7 | COCCc1noc(-c2ccc(N[C@H]3CCCCNC3=O)nc2)n1 | 1.04 | –
8 | Cc1cc(C)c(C(=O)N2CCCC(Nc3ccc(F)c(F)c3)C2)o1 (stereo unspecified) | 0.678 | –
9 | COCC(=O)Nc1cnn(-c2cccc(C(=O)N3CCC(c4ccccc4F)C3)c2)c1 (stereo unspecified) | – | 0.699
10 | COc1ccc(CNC(=O)CCC2(Cc3ccc(F)c(OC)c3)CCC(=O)N2)c(OC)c1 (stereo unspecified) | – | 0.814
11 | CC(C)CN(C)CC1(O)CCCN(CC(C)(C)C)C1=O (stereo unspecified) | – | 0.807
12 | COCCN1CCCC2(CCN(Cc3cccc(O)c3)C2)C1=O (stereo unspecified) | – | 0.826
13 | O=C(c1csc2nc(-c3cccc(C(F)(F)F)c3)cn12)N1CCCC1 | 1.19 | –
14 | COc1ccc(/C=C/C(=O)N(Cc2ccncc2)Cc2cccc(OCCc3ccc(F)cc3)c2)cc1 | – | -0.001
15 | COc1ccc(F)c(CC2(CCC(=O)N3CCCN(c4ncccn4)CC3)CCC(=O)N2)c1 (stereo unspecified) | – | 0.81
16 | COc1ccccc1N1C[C@@H]2C[C@@H](c3ccco3)N3CCC[C@@]23C1=O | – | 0.798

Row | Structure (SMILES) | bacterial growth OD600 (polymyxin B 1 µg/mL) | bacterial growth OD600 (polymyxin B 0.75 µg/mL)
17 | CN(CCCCN1CCOCC1)c1nc2nonc2nc1N1CCCC1 | – | 0.834
18 | CCOC(=O)C1(CCCc2ccccc2)CCN(C(=O)Cc2cnc3ncnn3c2)CC1 | 0.955 | –
19 | CS(=O)(=O)N1CCC(C2CCN(Cc3cccc(F)c3F)CC2)C1 (stereo unspecified) | – | 0.826
20 | CC(C)S(=O)(=O)c1ncc(CN(C)Cc2cnn(C)c2)n1Cc1ccccc1F | 0.96 | –
21 | COc1ccc(C(CC(=O)NCc2cn3ccsc3n2)c2ccccc2)cc1 (stereo unspecified) | 0.696 | –
22 | COC(=O)CCC(=O)N1CCC(C2CCN(Cc3cccc(F)c3F)CC2)C1 (stereo unspecified) | – | 0.973
23 | Cc1ccc(OC2CCN(C(=O)C3CCC(=O)N(CCN4CCOCC4)C3)CC2)cc1 (stereo unspecified) | 1.17 | –
24 | COCC(=O)Nc1cc(C(=O)N(C)CC2Cc3ccccc3O2)cc2nc(-c3cccnc3)n(C)c12 (stereo unspecified) | – | 0.872
25 | c1ccc(N2CCN(C3CCCN(Cc4cccc5cccnc45)C3)CC2)cc1 (stereo unspecified) | – | 0.785
26 | O=C(CCOc1ccccc1)N1CCCC(Nc2ccc(F)c(F)c2)C1 (stereo unspecified) | 0.012 | –
27 | CC#CC(=O)NCC1(N(C)Cc2ccccc2)Cc2ccccc2C1 | 0.728 | –
28 | COC1CCN(C(=O)c2cc(NC(=O)CC3CCCC3)cc3nc(C4CCCO4)n(C)c23)CC1 (stereo unspecified) | – | 0.924
29 | COc1ccccc1CCN1CCCC(CN(C)C(=O)NCc2ccccc2)C1 (stereo unspecified) | 1.06 | –
30 | CN(Cc1ccccc1)C(=O)c1nc2ccccn2c1CNCCc1cccnc1 | 0.767 | –
31 | C=CCNC(=O)N1C[C@H]2OC(=O)N(CCc3ccc(OC)cc3)[C@H]2C1 | 0.947 | –

Single values from the list:
Under bacterial growth OD600 (polymyxin B 0.75 µg/mL), CS(=O)(=O)N1CCC(C2CCN(Cc3cccc(F)c3F)CC2)C1 (stereo unspecified) has the entry 0.826
Under bacterial growth OD600 (polymyxin B 1 µg/mL), O=C(CCOc1ccccc1)N1CCCC(Nc2ccc(F)c(F)c2)C1 (stereo unspecified) has the entry 0.012
